From patent publication US12612429 (dated 2026)

Test: general procedure: solution-phase peptide synthesis; HATU/DIEA
[1] = late stage modification step, TFA salt or formic acid salt
[2] = coupling step, TFA salt or formic acid salt
[3] = late stage modification step, TFA salt
[4] = late stage modification step, formic acid salt
[5] = coupling step, formic acid salt

Substance | step yield [1] | step yield [2] | further results
(S)-4-amino-2-((S)-2-(dimethylamino)-3-methylbutanamido)-N-((3R,4S,5S)-1-((S)-2-((1R,2R)-3-(((1S,2R)-1-hydroxy-1-phenylpropan-2-yl)amino)-1-methoxy-2-methyl-3-oxopropyl)pyrrolidin-1-yl)-3-methoxy-5-methyl-1-oxoheptan-4-yl)-N-methylbutanamide | 14% |  | 
N-Boc-N-hydroxyVal-Val-Dil-Dap-2-(2-pyridyl)ethylamine |  | 43% | 
methyl ((2R,3R)-3-((S)-1-((3R,4S,5S)-4-((S)-6-amino-2-((S)-2-(dimethylamino)-3-methylbutanamido)-N-methylhexanamido)-3-methoxy-5-methylheptanoyl)pyrrolidin-2-yl)-3-methoxy-2-methylpropanoyl)-L-phenylalaninate | 51% |  | 
Dov-Abu(3-N3)-Dil-Dap-Phe-NHt-Bu | 59% |  | 
N,N-dimethylSer(Bzl)-Val-Dil-Dap-Phe-OMe |  | 49% | 
(2S,3S)-3-azido-N-((3R,4S,5S)-1-((S)-2-((1R,2R)-3-((2-chlorophenethyl)amino)-1-methoxy-2-methyl-3-oxopropyl)pyrrolidin-1-yl)-3-methoxy-5-methyl-1-oxoheptan-4-yl)-2-((S)-2-(dimethylamino)-3-methylbutanamido)-N-methylbutanamide |  |  | step yield (coupling step, based on RSM, TFA salt or formic acid salt): 32% based on RSM
Dov-Ser(Bzl)-Dil-Dap-Phe-OtBu |  | 98% | 
(S)-2-((2R,3R)-3-((S)-1-((3R,4S,5S)-4-((R)-2-((S)-2-(dimethylamino)-3-methylbutanamido)-3-mercapto-N-methylpropanamido)-3-methoxy-5-methylheptanoyl)pyrrolidin-2-yl)-3-methoxy-2-methylpropanamido)-3-phenylpropanoic acid | 25% |  | 
Dov-Thr(Bzl)-Dil-Dap-(1R,2S)-(−)-Norephedrine |  | 37% | 
Fmoc-MeVal-Abu(3-N3)-Dil-Dap-Phe-OH |  |  | step yield [3]: 77%
(S)-methyl 2-((2R,3R)-3-((S)-1-((3R,4S,5S)-4-((2S,3S)-3-amino-2-((S)-2-(dimethylamino)-3-methylbutanamido)-N-methylbutanamido)-3-methoxy-5-methylheptanoyl)pyrrolidin-2-yl)-3-methoxy-2-methylpropanamido)-3-phenylpropanoate | 62% |  | 
(S)-methyl 2-((2R,3R)-3-((S)-1-((3R,4S,5S)-4-((S)-2-((S)-2-(dimethylamino)-3-methylbutanamido)-3-hydroxy-N-methylpropanamido)-3-methoxy-5-methylheptanoyl)pyrrolidin-2-yl)-3-methoxy-2-methylpropanamido)-3-phenylpropanoate |  |  | step yield [3]: 47%
(2S,3S)-3-amino-N-((3R,4S,5S)-1-((S)-2-((1R,2R)-3-((4-chlorophenethyl)amino)-1-methoxy-2-methyl-3-oxopropyl)pyrrolidin-1-yl)-3-methoxy-5-methyl-1-oxoheptan-4-yl)-2-((S)-2-(dimethylamino)-3-methylbutanamido)-N-methylbutanamide |  |  | step yield [4]: 9%
(2S,3R)-2-((S)-2-(dimethylamino)-3-methylbutanamido)-3-hydroxy-N-((3R,4S,5S)-3-methoxy-1-((S)-2-((1R,2R)-1-methoxy-2-methyl-3-oxo-3-((2-(pyridin-2-yl)ethyl)amino)propyl)pyrrolidin-1-yl)-5-methyl-1-oxoheptan-4-yl)-N-methylbutanamide |  |  | step yield [3]: 3%
(S)-methyl 2-((2R,3R)-3-((S)-1-((3R,4S,5S)-4-((S)-2-((S)-2-(dimethylamino)-3-hydroxypropanamido)-N,3-dimethylbutanamido)-3-methoxy-5-methylheptanoyl)pyrrolidin-2-yl)-3-methoxy-2-methylpropanamido)-3-phenylpropanoate | 18% |  | 
Dov-Ser(Bzl)-Dil-Dap-Phe-OMe |  |  | step yield (coupling step, TFA salt): 54%
(S)-2-((2R,3R)-3-((S)-1-((3R,4S,5S)-4-((2S,3S)-3-amino-2-((S)-2-(dimethylamino)-3-methylbutanamido)-N-methylbutanamido)-3-methoxy-5-methylheptanoyl)pyrrolidin-2-yl)-3-methoxy-2-methylpropanamido)-3-phenylpropanoic acid | 21% |  | 

Substance | step yield [1] | step yield [2] | further results
(S)-methyl 2-((2R,3R)-3-((S)-1-((3R,4S,5S)-4-((S)-4-amino-2-((S)-2-(dimethylamino)-3-methylbutanamido)-N-methylbutanamido)-3-methoxy-5-methylheptanoyl)pyrrolidin-2-yl)-3-methoxy-2-methylpropanamido)-3-phenylpropanoate |  |  | step yield [4]: 13%
(2S,3S)-3-azido-N-((3R,4S,5S)-1-((S)-2-((1R,2R)-3-((4-chlorophenethyl)amino)-1-methoxy-2-methyl-3-oxopropyl)pyrrolidin-1-yl)-3-methoxy-5-methyl-1-oxoheptan-4-yl)-2-((S)-2-(dimethylamino)-3-methylbutanamido)-N-methylbutanamide |  | 85% | 
Dov-Thr(Bzl)-Dil-Dap-Phe-OMe |  |  | step yield (coupling step, TFA salt): 63%
(2S,3S)—N-((3R,4S,5S)-1-((S)-2-((1R,2R)-3-(((S)-1-amino-1-oxo-3-phenylpropan-2-yl)amino)-1-methoxy-2-methyl-3-oxopropyl)pyrrolidin-1-yl)-3-methoxy-5-methyl-1-oxoheptan-4-yl)-3-azido-N-methyl-2-((S)-3-methyl-2-(methylamino)butanamido)butanamide |  |  | step yield [3]: 79%
Fmoc-MeVal-Abu(3-N3)-Dil-Dap-Phe-NH2 |  |  | step yield [5]: 75%
(S)—N-((3R,4S,5S)-1-((S)-2-((1R,2R)-3-(((S)-1-amino-1-oxo-3-phenylpropan-2-yl)amino)-1-methoxy-2-methyl-3-oxopropyl)pyrrolidin-1-yl)-3-methoxy-5-methyl-1-oxoheptan-4-yl)-2-((S)-2-(dimethylamino)-3-hydroxypropanamido)-N,3-dimethylbutanamide | 83% |  | 
(S)-methyl 2-((2R,3R)-3-((S)-1-((3R,4S,5S)-4-((2S,3S)-3-azido-2-((S)-2-(dimethylamino)-3-methylbutanamido)-N-methylbutanamido)-3-methoxy-5-methylheptanoyl)pyrrolidin-2-yl)-3-methoxy-2-methylpropanamido)-3-phenylpropanoate |  |  | step yield [5]: 49%
(S)-methyl 2-((2R,3R)-3-((S)-1-((3R,4S,5S)-4-((S)-4-azido-2-((S)-2-(dimethylamino)-3-methylbutanamido)-N-methylbutanamido)-3-methoxy-5-methylheptanoyl)pyrrolidin-2-yl)-3-methoxy-2-methylpropanamido)-3-phenylpropanoate |  |  | step yield (coupling step, TFA salt): 7%
Dov-Lys(Fmoc)-Dil-Dap-Phe-OMe |  | 70% | 
Dov-Dab(Fmoc)-Dil-Dap-2-(2-chlorophenyl)ethylamine |  | 26% | 
(S)—N-((3R,4S,5S)-1-((S)-2-((1R,2R)-3-(((S)-1-amino-1-oxo-3-phenylpropan-2-yl)amino)-1-methoxy-2-methyl-3-oxopropyl)pyrrolidin-1-yl)-3-methoxy-5-methyl-1-oxoheptan-4-yl)-2-((2S,3R)-2-(dimethylamino)-3-hydroxybutanamido)-N,3-dimethylbutanamide | 70% |  | 
methyl ((2R,3R)-3-((S)-1-((3R,4S,5S)-4-((2S,3S)-3-azido-2-((S)-2-(dimethylamino)-3-methylbutanamido)-N-methylbutanamido)-3-methoxy-5-methylheptanoyl)pyrrolidin-2-yl)-3-methoxy-2-methylpropanoyl)-L-valinate |  | 55% | 
methyl ((2R,3R)-3-((S)-1-((3R,4S,5S)-4-((S)-2-((S)-2-(dimethylamino)-3-methylbutanamido)-N,3-dimethylbutanamido)-3-methoxy-5-methylheptanoyl)pyrrolidin-2-yl)-3-methoxy-2-methylpropanoyl)-L-serinate |  | 74% | 
(S)-4-amino-N-((3R,4S,5S)-1-((S)-2-((1R,2R)-3-((4-chlorophenethyl)amino)-1-methoxy-2-methyl-3-oxopropyl)pyrrolidin-1-yl)-3-methoxy-5-methyl-1-oxoheptan-4-yl)-2-((S)-2-(dimethylamino)-3-methylbutanamido)-N-methylbutanamide | 85% |  | 
(2S,3S)-3-azido-2-((S)-2-(dimethylamino)-3-methylbutanamido)-N-((3R,4S,5S)-3-methoxy-1-((S)-2-((1R,2R)-1-methoxy-2-methyl-3-oxo-3-(phenethylamino)propyl)pyrrolidin-1-yl)-5-methyl-1-oxoheptan-4-yl)-N-methylbutanamide |  | 49% | 
(2S,3S)-3-amino-N-((3R,4S,5S)-1-((S)-2-((1R,2R)-3-(((S)-1-(tert-butylamino)-1-oxo-3-phenylpropan-2-yl)amino)-1-methoxy-2-methyl-3-oxopropyl)pyrrolidin-1-yl)-3-methoxy-5-methyl-1-oxoheptan-4-yl)-2-((S)-2-(dimethylamino)-3-methylbutanamido)-N-methylbutanamide | 18% |  | 
methyl ((2R,3R)-3-((S)-1-((3R,4S,5S)-4-((2S,4S)-4-azido-1-(dimethyl-L-valyl)-N-methylpyrrolidine-2-carboxamido)-3-methoxy-5-methylheptanoyl)pyrrolidin-2-yl)-3-methoxy-2-methylpropanoyl)-L-phenylalaninate |  | 18% | 
